Patent EP4203925B1, “CANNABINOID COMBINATIONS AND THEIR USE IN THE TREATMENT OF CANCER” (priority 2020, dated 2022)

Assays:
MDA-MB-231 cells = assay: MTT cell viability assay with Chou-Talalay median-effect / combination index analysis
MCF-7 cells = assay: as above
[1] = individual cannabinoids, 48 hours, MTT

| SMILES | m (slope of the median-effect plot) (MDA-MB-231 cells; [1]) | m (slope of the median-effect plot) (MCF-7 cells; [1]) | m (slope of the median-effect plot) (MDA-MB-231 cells) | m (slope of the median-effect plot) (MCF-7 cells) |
| --- | --- | --- | --- | --- |
| C=C(C)[C@@H]1CCC(C)=C[C@H]1c1c(O)cc(CCCCC)cc1O [CBD, cannabidiol] | 1.88 | 2.86 | – | – |
| CCCCCc1cc(O)c(C/C=C(\C)CCC=C(C)C)c(O)c1 [CBG, cannabigerol] | 9.08 | 5.38 | – | – |
| CCCCCc1cc(O)c2c(c1)OC(C)(C)[C@@H]1CCC(C)=C[C@@H]21 [THC, Δ^9-tetrahydrocannabinol] | – | – | 4.46 | 3.77 |
| CCCCCc1cc(O)c2c(c1)OC(C)(C)c1ccc(C)cc1-2 [CBN, cannabinol] | 8.34 | 8.63 | – | – |

Where two headings read alike, the source gives them in different places.
